No constants are given. Whether binding was seen depends on the method and setting. Binding seen in cells or lysates may run through a third protein. Binding calls can cover weak binding; strength is not graded here.
What was measured:
[1] = target: EGFR, transfected in HCT116 cells (UniProt P00533); experiment: proximity ligation; HCT116 cells co-transfected with Myc-ZNRF3ΔRING and EGFR; Duolink In Situ Red kit; anti-EGFR rabbit and anti-Myc-tag mouse primary antibodies; no primary antibody as negative control
[2] = target: EGFR, transfected in 293T cells (UniProt P00533); experiment: co-IP; 293T cells co-transfected with EGFR and ZNRF3/RNF43 WT or ΔPA constructs; the precipitating antibody is not told

The chains behind the UniProt entries cited, without tags or fusion partners. Where a name states a change or a piece, a line headed by the entry shows the natural chain unless it says otherwise.
UniProt Q9ULT6: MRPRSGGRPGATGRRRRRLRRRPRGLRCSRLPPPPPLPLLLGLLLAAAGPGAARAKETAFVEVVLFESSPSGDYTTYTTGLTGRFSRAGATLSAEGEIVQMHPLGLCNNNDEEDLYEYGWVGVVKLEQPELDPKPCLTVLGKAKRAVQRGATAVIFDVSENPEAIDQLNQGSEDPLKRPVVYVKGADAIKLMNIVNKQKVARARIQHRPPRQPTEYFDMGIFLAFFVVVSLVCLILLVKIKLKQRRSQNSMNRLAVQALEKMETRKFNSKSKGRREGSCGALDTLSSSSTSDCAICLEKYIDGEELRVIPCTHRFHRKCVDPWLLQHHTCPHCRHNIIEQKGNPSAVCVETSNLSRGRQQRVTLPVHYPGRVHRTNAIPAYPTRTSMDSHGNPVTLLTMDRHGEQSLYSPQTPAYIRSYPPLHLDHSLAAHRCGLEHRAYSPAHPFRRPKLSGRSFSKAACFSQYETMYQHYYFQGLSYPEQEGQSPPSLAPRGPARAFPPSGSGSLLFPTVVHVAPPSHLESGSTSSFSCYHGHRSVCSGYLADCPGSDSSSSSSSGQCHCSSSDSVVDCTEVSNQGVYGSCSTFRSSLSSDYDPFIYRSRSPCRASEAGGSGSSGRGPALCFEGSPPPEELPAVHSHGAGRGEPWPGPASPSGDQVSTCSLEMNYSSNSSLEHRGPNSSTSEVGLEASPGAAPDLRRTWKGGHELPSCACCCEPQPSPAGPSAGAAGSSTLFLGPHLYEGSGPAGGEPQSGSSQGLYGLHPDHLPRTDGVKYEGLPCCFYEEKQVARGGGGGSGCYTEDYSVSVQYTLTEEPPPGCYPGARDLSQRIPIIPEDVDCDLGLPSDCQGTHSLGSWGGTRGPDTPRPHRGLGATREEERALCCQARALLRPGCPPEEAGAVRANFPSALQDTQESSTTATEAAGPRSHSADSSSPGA

Substance	binding [1]	binding [2]
Myc-ZNRF3ΔRING (from UniProt Q9ULT6) (enzyme)	binds	–
Myc-ZNRF3 ΔPA (from UniProt Q9ULT6) (enzyme)	–	binds
